Some of the results follow. Further columns of the screen follow, without active or inactive calls. The list favours compounds with an active or inconclusive main result. Potencies come from curve fits of mixed quality, noted in brackets.
Experiment: qHTS Assay to Find Inhibitors of Chronic Active B-Cell Receptor Signaling
Details: ABC-DLBCL IkBa-CBG/CBR reporter, luminescence ratio (green luciferase fused to IkBa over red control in TMD8 lymphoma cells), 4 h
Outline: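 Doxycycline induced both beetle luciferases in TMD8 lymphoma cells; IKK-driven degradation limits the IkappaBalpha-fused green signal, while red luminescence normalises for cell number and nonspecific effects. Compounds tested up to 46 uM, 4 hrs.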

[1] = measured here: CBR red luminescence, cell number
[2] = measured here: IkBa-CBG green luminescence

Compound	AC50 [1]	AC50 [2]
COc1ccc(Cl)cc1NC(=O)CSc1nc(=O)n(Cc2ccco2)c2c1CCC2	35.5 µM [falling, single point]	
Cc1ccc(N2C(=O)CS/C2=C(\C(Cl)=C(Cl)Cl)[N+](=O)[O-])cc1	0.206 µM [falling, full curve, poor fit]	
COc1cccc(-c2nn(C)c3sc(C(=O)N4CCOCC4)cc23)c1	22.4 µM [falling, single point]	
Cc1ccc(C(=O)Nc2ccc(N3CCCC3)cc2)cc1	0.316 µM [falling, full curve]	
O=C(O)c1ccc(-c2ccc(OS(=O)(=O)c3ccccc3F)cc2)cc1	8.91 µM [falling, partial curve, poor fit]	
CC(C)(C)c1ccc(C(=O)Nc2ccc(Cl)cc2)cc1	1.46 µM [rising, full curve]	
O=C(O)CSc1ncnc2sc3c(c12)CCC3	11.2 µM [falling, partial curve, poor fit]	
CCCNC(=O)NS(=O)(=O)c1cnccc1Sc1ccc(Cl)cc1	7.94 µM [rising, partial curve]	
Cc1cc(NC(=O)CCSc2ccccc2)ccc1Br	1.64 µM [rising, partial curve, poor fit]	
COc1ccc(C(=O)Nn2c(SCC(=O)NCC3CCCO3)nc3ccccc3c2=O)cc1 (configuration not stated)	2.59 µM [falling, full curve]	
COc1ccc(OC)c(NC(=O)C(=O)c2cn(CC(=O)N3CCCC3)c3ccccc23)c1	0.708 µM [falling, full curve]	
Cc1cccc(CCNC(=O)c2oc3c(C)c(C)ccc3c2C)n1	10 µM [falling, partial curve, poor fit]	
CCN(CC)C(=O)c1cc2cc([N+](=O)[O-])ccc2s1	35.5 µM [rising, partial curve, poor fit]	
N#CC1=C(N)NC(SCC(=O)c2ccc(Br)cc2)=C(C#N)C12CCCCC2	16.4 µM [falling, single point]	
COCCn1nnnc1C(c1ccccn1)N1CCN(c2cc(Cl)ccc2C)CC1 (configuration not stated)	0.58 µM [falling, partial curve, poor fit]	
CCn1c(=O)c(C(=O)Nc2ncccc2O)c(O)c2ccccc21	15.8 µM [falling, single point]	
Cc1cc(SCNC(=O)c2ccccc2)nc(C(C)C)n1	35.5 µM [rising, single point]	
Cc1c(C(=O)NCc2ccccn2)sc2nc(-c3ccccc3)cn12	1.84 µM [rising, partial curve, poor fit]	
COc1ccccc1Nc1nc(NCC2CCCO2)c2ccccc2n1 (configuration not stated)	35.5 µM [falling, single point]	
COC(=O)C1=C(C)NC(C)=C(C(=O)OC)C1C(=O)OCC(=O)c1ccc(Br)cc1	3.26 µM [rising, full curve, poor fit]	7.31 µM [falling, partial curve, poor fit]
CC(=O)Nc1cccc(NS(=O)(=O)c2c(C)noc2C)c1	7.31 µM [rising, single point]	
COc1cccc(NC(=O)CSc2nc(=O)n(Cc3cccnc3)c3c2CCC3)c1	15.8 µM [falling, partial curve, poor fit]	

Compound	AC50 [1]	AC50 [2]
O=C(CCCn1cnc([N+](=O)[O-])n1)Nc1ccc(F)c(Cl)c1	6.31 µM [falling, single point]	
O=C(O)[C@H](Cc1ccccc1)NC(=O)N1CCCCCC1	0.316 µM [rising, partial curve, poor fit]	
COc1ccc(-n2nc(C(=O)NCC(=O)Nc3cccc(NC(C)=O)c3)c3ccccc3c2=O)cc1	1.26 µM [rising, partial curve, poor fit]	
Cc1ccc(S(=O)(=O)CC(=O)Nc2ncc([N+](=O)[O-])s2)cc1	5.01 µM [falling, full curve]	
CCC(C)NC(=O)c1cn(CC)c2cc(N3CCN(C)CC3)c(F)cc2c1=O (configuration not stated)		17.8 µM [rising, partial curve, poor fit]
O=C1OC(c2ccccc2)=NC12CC2c1ccc(Cl)cc1 (configuration not stated)	29.1 µM [falling, single point]	
CCOc1ncccc1C(=O)Nc1ccc(-c2ccc3nnc(C)n3n2)cc1	0.794 µM [falling, partial curve, poor fit]	
CCC(C)NCC(O)(c1ccc(Cl)cc1)c1ccc(Cl)cc1 (configuration not stated)	22.4 µM [falling, single point]	
CCOc1ccccc1N1CCN(C(=O)Nc2ccc(F)c(Cl)c2)CC1	0.0326 µM [rising, full curve, poor fit]	
C=CCNc1nc(NCCO)nc(N2CCCC2)n1	29.1 µM [rising, single point]	32.6 µM [falling, partial curve, poor fit]
Cc1cc(NC(=O)OC2CCCCC2)ccc1[N+](=O)[O-]	35.5 µM [falling, single point]	
O=C(CCl)N1N=C(c2ccco2)CC1c1cccs1 (configuration not stated)	5.8 µM [falling, partial curve, poor fit]	
Cn1c(SCC(=O)N2CCCCC2)nc2cccnc21	10 µM [falling, partial curve, poor fit]	
COC(=O)c1ccc(NC(=O)CSC2=NCCN2)cc1	32.6 µM [falling, partial curve, poor fit]	
COc1cccc(-c2nc(-c3ccc(Br)o3)no2)c1	1.58 µM [rising, partial curve, poor fit]	
Cc1ccsc1C(=O)Nc1ccc2c(c1)OCCO2	9.2 µM [falling, partial curve]	
CCc1c(-c2ccccc2)nc2ccccc2c1C(=O)NC(C)c1ccccc1 (configuration not stated)	7.94 µM [falling, partial curve, poor fit]	
Cc1cccc(N2CC(C(=O)Nc3nnc(SCCC4OCCO4)s3)CC2=O)c1 (configuration not stated)	0.398 µM [rising, full curve, poor fit]	
CCOc1ccc(NC(=O)CN(C)C(=O)C2COc3ccccc3O2)cc1OCC (configuration not stated)	0.92 µM [rising, full curve, poor fit]	
Cc1cc(C)c2ccc3c(C)c(C)nc3c2[nH]1	5.62 µM [rising, single point]	
Nc1c(N(CCC2=CCCCC2)C(=O)c2ccc([N+](=O)[O-])o2)c(=O)[nH]c(=O)n1Cc1ccccc1	6.51 µM [falling, full curve]	
CC(=O)N1CCN(c2ccc(NC(=O)c3ccc4c(c3)OCCO4)cc2Cl)CC1	35.5 µM [falling, single point]	

Compound	AC50 [1]	AC50 [2]
Cc1cccc(NS(=O)(=O)c2ccc(-c3cnc(C4CC4)o3)cc2)c1C	3.16 µM [rising, partial curve]	7.08 µM [falling, partial curve]
O=C(Nc1ccccn1)c1ccc2c(=O)n3c(nc2c1)CCCCC3	20.6 µM [falling, partial curve, poor fit]	
O=C(Nc1cccc(S(=O)(=O)N2CCCCC2)c1)c1cccs1	25.1 µM [falling, single point]	
FC(F)(F)c1cc(-c2ccccc2)nc(-n2cncn2)n1	29.1 µM [rising, single point]	
O=c1c2[nH]c3ccccc3c2ncn1CCC1=CCCCC1	0.631 µM [rising, full curve, poor fit]	
O=C(CSc1nc2ccccc2c(=O)[nH]1)Nc1ccc([N+](=O)[O-])cc1	2.59 µM [rising, full curve]	
Cc1cc(C)n2nc(C(=O)OCC(=O)NNC(=O)c3ccccc3)nc2n1	5.8 µM [rising, partial curve, poor fit]	
COc1ccc2c(c1)C1(C)CC(C)(C)N2C(=O)N1c1ccccc1 (configuration not stated)	22.4 µM [falling, single point]	
Cc1cccc(C(=O)Nc2ccc(C(=O)N3CCCCC3C)cc2)c1 (configuration not stated)	7.08 µM [falling, full curve, poor fit]	
Cc1ccc(OCC(=O)N/N=C/c2cccc3cccnc23)cc1	11.2 µM [falling, single point]	
COc1ccc(C2=NS(=O)(=O)N(C)C(C(=O)Nc3ccc(C(C)=O)cc3)=C2)cc1OC	35.5 µM [falling, single point]	
Cc1ccc(S(=O)(=O)Nc2cc(C)c(O)cc2C)cc1	22.4 µM [falling, partial curve, poor fit]	
CS(=O)(=O)c1ccc(-n2c(=O)n(Cc3ccccc3)c(=O)c3[nH]cnc32)cc1	12.6 µM [rising, partial curve, poor fit]	
CCC(CCC(=O)Nc1nncs1)C(=O)O (configuration not stated)	23.1 µM [rising, single point]	
O=C(CSc1nc(=O)n2cc(Cl)ccc2n1)Nc1ccc2c(c1)OCCO2	18.4 µM [falling, partial curve]	
O=C(NCC1CCCO1)c1cc([N+](=O)[O-])ccc1Cl (configuration not stated)	5.01 µM [rising, full curve, poor fit]	
CC(C)(C)N=C1NN=C(c2cc3ccccc3o2)CS1		20.6 µM [rising, partial curve, poor fit]
NC(=O)c1ccc(N2CCOCC2)nc1	35.5 µM [rising, single point]	
O=C(OCCOc1ccccc1)c1cccc(S(=O)(=O)N2CCOCC2)c1	32.6 µM [rising, partial curve, poor fit]	
O=C(NCc1ccccc1)c1cc(Sc2cccc(Cl)c2)nc2ccccc12	10 µM [rising, partial curve]	

Arranged by length of the SMILES (ascending): part of the list above
Compound	AC50 [1]	AC50 [2]
NC(=O)c1ccc(N2CCOCC2)nc1	35.5 µM [rising, single point]	
CCC(CCC(=O)Nc1nncs1)C(=O)O (configuration not stated)	23.1 µM [rising, single point]	
CC(C)(C)N=C1NN=C(c2cc3ccccc3o2)CS1		20.6 µM [rising, partial curve, poor fit]
O=c1c2[nH]c3ccccc3c2ncn1CCC1=CCCCC1	0.631 µM [rising, full curve, poor fit]	
Cc1ccc(S(=O)(=O)Nc2cc(C)c(O)cc2C)cc1	22.4 µM [falling, partial curve, poor fit]	
FC(F)(F)c1cc(-c2ccccc2)nc(-n2cncn2)n1	29.1 µM [rising, single point]	
Cc1ccc(OCC(=O)N/N=C/c2cccc3cccnc23)cc1	11.2 µM [falling, single point]	
Cc1cccc(C(=O)Nc2ccc(C(=O)N3CCCCC3C)cc2)c1 (configuration not stated)	7.08 µM [falling, full curve, poor fit]	
O=C(OCCOc1ccccc1)c1cccc(S(=O)(=O)N2CCOCC2)c1	32.6 µM [rising, partial curve, poor fit]	
Cc1cc(C)n2nc(C(=O)OCC(=O)NNC(=O)c3ccccc3)nc2n1	5.8 µM [rising, partial curve, poor fit]	
Cc1cccc(NS(=O)(=O)c2ccc(-c3cnc(C4CC4)o3)cc2)c1C	3.16 µM [rising, partial curve]	7.08 µM [falling, partial curve]
COc1ccc(C2=NS(=O)(=O)N(C)C(C(=O)Nc3ccc(C(C)=O)cc3)=C2)cc1OC	35.5 µM [falling, single point]	

From PubChem BioAssay AID493014 (National Center for Advancing Translational Sciences (NCATS), 2011)
